# Assay results reported in the supplement of paper PMC10849652.
# Sequences of proteins named here, by UniProt entry; tags and fusion partners are left off. A change or cut given only in a name is not applied to a line headed by its entry.
# UniProt Q9UIY3: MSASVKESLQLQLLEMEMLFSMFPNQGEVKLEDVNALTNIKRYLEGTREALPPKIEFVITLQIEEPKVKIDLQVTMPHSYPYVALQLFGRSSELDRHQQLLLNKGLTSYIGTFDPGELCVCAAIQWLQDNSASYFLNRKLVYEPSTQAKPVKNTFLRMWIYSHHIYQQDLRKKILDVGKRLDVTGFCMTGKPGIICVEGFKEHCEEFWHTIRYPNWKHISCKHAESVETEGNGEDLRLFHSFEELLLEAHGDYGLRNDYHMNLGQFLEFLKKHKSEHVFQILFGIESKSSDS
# UniProt Q9Y224: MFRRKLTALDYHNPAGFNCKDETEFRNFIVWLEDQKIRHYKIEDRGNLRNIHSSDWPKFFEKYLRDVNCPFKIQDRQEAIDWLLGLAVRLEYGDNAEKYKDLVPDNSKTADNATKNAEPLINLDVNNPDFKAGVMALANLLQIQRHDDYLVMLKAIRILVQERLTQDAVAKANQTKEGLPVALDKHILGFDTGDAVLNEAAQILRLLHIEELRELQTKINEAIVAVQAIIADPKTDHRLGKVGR
# UniProt P62070: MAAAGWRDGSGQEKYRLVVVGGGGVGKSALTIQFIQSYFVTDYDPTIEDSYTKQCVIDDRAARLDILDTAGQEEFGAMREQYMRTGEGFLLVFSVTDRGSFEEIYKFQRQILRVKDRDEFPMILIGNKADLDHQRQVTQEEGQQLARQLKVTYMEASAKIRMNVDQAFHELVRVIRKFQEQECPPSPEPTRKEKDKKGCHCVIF
# UniProt O75582, whole entry, looked up: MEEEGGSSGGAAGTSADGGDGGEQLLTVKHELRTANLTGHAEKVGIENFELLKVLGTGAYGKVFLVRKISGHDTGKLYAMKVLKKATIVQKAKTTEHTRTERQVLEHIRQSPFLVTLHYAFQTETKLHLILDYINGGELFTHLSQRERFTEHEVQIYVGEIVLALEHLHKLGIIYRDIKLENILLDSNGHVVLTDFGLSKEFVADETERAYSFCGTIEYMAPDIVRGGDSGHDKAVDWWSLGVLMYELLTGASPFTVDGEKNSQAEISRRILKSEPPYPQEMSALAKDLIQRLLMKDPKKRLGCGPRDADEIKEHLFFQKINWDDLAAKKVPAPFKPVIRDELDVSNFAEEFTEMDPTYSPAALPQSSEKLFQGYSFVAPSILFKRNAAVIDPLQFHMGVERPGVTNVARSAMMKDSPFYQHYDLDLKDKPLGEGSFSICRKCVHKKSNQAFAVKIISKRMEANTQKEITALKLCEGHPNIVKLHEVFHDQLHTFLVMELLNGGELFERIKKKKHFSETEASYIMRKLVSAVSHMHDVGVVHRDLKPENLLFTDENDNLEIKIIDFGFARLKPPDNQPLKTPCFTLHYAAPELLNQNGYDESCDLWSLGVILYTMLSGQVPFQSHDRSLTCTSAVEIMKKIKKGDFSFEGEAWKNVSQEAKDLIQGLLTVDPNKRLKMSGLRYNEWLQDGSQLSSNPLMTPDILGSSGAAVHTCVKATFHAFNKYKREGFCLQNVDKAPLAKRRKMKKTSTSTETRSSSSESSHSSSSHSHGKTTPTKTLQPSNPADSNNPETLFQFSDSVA
# UniProt Q86VV8: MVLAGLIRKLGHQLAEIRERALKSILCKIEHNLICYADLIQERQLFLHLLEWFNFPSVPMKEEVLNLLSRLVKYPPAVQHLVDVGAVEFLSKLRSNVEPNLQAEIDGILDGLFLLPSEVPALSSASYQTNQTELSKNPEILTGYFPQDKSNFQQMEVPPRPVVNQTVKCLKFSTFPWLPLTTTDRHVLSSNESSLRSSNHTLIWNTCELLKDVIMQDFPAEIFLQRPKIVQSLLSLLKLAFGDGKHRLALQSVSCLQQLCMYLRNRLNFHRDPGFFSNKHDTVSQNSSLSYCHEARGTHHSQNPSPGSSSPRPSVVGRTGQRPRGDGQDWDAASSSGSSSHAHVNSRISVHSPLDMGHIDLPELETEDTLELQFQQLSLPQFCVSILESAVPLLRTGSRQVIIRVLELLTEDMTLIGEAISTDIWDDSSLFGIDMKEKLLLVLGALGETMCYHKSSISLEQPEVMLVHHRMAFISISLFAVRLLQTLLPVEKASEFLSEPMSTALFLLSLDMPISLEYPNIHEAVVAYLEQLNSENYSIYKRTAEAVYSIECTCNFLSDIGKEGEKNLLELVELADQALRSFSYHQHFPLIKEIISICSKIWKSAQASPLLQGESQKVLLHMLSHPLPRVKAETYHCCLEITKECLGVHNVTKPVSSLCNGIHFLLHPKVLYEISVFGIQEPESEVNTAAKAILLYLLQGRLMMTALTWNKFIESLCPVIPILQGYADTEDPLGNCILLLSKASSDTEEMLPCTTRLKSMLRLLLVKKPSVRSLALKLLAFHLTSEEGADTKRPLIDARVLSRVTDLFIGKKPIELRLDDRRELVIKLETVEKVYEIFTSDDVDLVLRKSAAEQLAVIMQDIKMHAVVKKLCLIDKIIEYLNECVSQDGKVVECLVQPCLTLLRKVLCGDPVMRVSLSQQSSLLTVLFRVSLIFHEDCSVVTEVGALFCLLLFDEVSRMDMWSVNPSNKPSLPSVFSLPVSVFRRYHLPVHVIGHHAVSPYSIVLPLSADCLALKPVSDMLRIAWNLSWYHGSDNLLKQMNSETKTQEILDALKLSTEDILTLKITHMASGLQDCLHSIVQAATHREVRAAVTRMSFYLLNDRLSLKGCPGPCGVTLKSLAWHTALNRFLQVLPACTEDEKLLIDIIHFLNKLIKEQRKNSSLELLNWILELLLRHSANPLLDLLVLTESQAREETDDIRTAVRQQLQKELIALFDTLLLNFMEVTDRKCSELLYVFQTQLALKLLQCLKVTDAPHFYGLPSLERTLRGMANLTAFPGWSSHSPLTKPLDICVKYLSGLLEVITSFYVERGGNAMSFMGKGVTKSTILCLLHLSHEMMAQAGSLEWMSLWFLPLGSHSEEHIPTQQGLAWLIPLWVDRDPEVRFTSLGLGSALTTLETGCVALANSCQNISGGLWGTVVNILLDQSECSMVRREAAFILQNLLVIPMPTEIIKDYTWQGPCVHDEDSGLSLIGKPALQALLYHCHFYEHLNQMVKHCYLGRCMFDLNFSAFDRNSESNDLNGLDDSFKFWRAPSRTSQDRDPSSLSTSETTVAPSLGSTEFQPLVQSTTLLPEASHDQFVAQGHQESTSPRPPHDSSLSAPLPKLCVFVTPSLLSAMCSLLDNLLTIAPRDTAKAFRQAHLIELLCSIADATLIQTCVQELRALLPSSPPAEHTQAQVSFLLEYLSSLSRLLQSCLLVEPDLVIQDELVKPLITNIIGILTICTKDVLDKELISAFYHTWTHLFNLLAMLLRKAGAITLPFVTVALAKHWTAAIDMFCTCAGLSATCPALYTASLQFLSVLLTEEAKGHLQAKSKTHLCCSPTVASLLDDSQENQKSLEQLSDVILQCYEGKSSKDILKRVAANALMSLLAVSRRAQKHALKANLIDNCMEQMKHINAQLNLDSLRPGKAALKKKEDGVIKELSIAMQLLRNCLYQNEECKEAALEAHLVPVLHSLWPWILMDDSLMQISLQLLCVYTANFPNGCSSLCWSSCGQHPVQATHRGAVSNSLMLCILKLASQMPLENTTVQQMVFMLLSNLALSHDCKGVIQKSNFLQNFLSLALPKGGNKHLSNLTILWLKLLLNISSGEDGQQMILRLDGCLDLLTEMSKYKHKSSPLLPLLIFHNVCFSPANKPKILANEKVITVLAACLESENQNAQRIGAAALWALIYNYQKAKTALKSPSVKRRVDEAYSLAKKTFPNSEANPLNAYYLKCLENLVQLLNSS
# UniProt P23297: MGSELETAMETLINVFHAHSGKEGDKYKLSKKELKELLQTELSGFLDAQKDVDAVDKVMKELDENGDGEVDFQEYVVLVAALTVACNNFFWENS
# UniProt P19793: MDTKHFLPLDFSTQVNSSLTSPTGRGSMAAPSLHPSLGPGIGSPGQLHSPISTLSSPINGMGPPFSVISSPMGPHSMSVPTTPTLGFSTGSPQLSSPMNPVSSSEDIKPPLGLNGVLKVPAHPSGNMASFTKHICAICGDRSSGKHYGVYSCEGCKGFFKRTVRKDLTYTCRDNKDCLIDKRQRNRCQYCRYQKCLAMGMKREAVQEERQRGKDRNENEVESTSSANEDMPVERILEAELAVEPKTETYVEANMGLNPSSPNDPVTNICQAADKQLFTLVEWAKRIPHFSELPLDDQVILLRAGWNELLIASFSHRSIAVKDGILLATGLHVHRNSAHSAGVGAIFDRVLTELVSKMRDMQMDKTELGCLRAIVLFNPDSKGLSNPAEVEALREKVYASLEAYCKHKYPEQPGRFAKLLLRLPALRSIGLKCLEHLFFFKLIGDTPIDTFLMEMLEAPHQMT
# UniProt P60903, whole entry, looked up: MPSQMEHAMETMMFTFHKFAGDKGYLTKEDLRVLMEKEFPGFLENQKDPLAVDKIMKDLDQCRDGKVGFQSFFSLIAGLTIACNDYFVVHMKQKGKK
# UniProt Q8N2Y8: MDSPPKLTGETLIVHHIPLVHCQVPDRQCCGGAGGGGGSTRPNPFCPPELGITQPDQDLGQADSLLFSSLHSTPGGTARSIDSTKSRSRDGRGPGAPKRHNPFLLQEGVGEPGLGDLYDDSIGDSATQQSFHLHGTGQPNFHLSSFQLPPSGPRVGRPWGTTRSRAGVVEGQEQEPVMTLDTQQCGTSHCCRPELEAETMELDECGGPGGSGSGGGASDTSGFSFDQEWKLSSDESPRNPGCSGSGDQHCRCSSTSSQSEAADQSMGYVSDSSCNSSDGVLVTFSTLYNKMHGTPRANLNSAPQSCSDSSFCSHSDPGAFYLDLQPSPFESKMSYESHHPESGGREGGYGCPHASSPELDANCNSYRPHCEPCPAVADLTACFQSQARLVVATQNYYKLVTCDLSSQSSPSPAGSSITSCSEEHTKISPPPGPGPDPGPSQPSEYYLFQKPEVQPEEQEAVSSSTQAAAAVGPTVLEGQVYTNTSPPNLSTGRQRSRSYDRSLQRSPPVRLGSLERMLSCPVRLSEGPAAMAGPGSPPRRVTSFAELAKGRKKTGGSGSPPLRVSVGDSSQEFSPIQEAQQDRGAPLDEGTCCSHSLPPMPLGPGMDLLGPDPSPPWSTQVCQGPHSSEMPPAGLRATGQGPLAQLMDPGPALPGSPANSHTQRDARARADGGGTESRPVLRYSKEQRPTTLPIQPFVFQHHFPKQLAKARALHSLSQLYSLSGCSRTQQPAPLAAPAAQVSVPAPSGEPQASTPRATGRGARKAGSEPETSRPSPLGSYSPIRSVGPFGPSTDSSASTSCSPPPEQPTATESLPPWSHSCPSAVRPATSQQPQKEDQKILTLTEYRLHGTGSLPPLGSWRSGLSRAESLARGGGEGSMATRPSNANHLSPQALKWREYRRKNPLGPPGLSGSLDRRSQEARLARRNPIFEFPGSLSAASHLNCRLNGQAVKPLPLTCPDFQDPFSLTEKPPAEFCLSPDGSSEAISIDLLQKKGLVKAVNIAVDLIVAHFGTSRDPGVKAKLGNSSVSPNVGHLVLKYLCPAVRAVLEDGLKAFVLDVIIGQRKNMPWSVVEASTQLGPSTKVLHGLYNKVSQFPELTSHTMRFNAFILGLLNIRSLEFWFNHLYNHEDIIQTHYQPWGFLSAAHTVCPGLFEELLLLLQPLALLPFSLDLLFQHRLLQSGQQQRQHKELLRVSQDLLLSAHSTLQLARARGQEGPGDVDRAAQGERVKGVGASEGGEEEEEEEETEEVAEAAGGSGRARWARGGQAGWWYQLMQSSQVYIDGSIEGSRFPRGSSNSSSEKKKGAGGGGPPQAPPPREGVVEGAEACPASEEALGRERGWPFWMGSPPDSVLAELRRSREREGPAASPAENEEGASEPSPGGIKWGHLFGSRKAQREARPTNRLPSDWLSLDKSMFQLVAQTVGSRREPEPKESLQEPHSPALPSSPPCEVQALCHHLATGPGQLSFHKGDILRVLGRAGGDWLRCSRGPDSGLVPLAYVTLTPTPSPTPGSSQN
# The list shows a part of the results.
# Tests used:
# Assay in all cases: log2 fold change, soluble protein after heating vs DMSO (PISA); higher = thermal stabilisation; K562 lysate, 10 uM; active = over 0.2 and 3.5 SD of the protein, either way, in both replicates (recomputed)
# vemurafenib = compound: CCCS(=O)(=O)Nc1ccc(F)c(C(=O)c2c[nH]c3ncc(-c4ccc(Cl)cc4)cc23)c1F [vemurafenib]
# How it was run: (§1)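 Values give the log-two fold change in thermal stability against solvent controls, from duplicates. Crude K562 extract at 1 mg/mL protein, made by dounce homogenisation in PBS pH 7.4 with 1 mM MgCl2, was treated with 10 μM compound for 30 min. After 3 min heating across 48°C-58°C, aliquots were pooled, adjusted to 0.5% NP-40 at 4°C and centrifuged at 21,000xg for 90 min. The supernatant was measured by TMTpro 16plex LC-MS/MS with channel sums equalised.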
# [1] = compound: CCCS(=O)(=O)Nc1ccc(F)c(C(=O)c2c[nH]c3ncc(Cl)cc23)c1F
# How it was run: as §1
# [2] = compound: CC[C@@H]1C(=O)N(C)c2cnc(Nc3ccc(C(=O)NC4CCN(C)CC4)cc3OC)nc2N1C1CCCC1
# How it was run: as §1
# volasertib = compound: CC[C@@H]1C(=O)N(C)c2cnc(Nc3ccc(C(=O)N[C@H]4CC[C@H](N5CCN(CC6CC6)CC5)CC4)cc3OC)nc2N1C(C)C [volasertib]
# How it was run: as §1
# [3] = compound: CCn1c(C(=O)N(C2CC2)C2CC2)cc2c3c(ncn3C)c(Nc3cc(C)n(C)n3)nc21
# How it was run: as §1
# [4] = compound: CCn1cc(-c2ccnc3[nH]c(-c4cccc(CN(C)C)c4)cc23)c(-c2ccc(NC(=O)N(C)C)cc2)n1
# How it was run: as §1
# [5] = compound: CN1CCC(CNc2ccc3ncc(-c4cccc(OC(F)(F)F)c4)n3n2)CC1
# How it was run: as §1
# saracatinib = compound: CN1CCN(CCOc2cc(OC3CCOCC3)c3c(Nc4c(Cl)ccc5c4OCO5)ncnc3c2)CC1 [saracatinib]
# How it was run: as §1
# sotrastaurin = compound: CN1CCN(c2nc(C3=C(c4c[nH]c5ccccc45)C(=O)NC3=O)c3ccccc3n2)CC1 [sotrastaurin]
# How it was run: as §1
# alvocidib = compound: CN1CC[C@H](c2c(O)cc(O)c3c(=O)cc(-c4ccccc4Cl)oc23)[C@H](O)C1 [alvocidib]
# How it was run: as §1
# Tubastatin A = compound: CN1CCc2c(c3ccccc3n2Cc2ccc(C(=O)NO)cc2)C1 [Tubastatin A]
# How it was run: as §1
# [6] = compound: CNC(=O)C1=CC=CC=C1NC2=NC(=NC=C2Cl)NC3=C(C=C(C=C3)N4CCOCC4)OC
# How it was run: as §1
# defactinib = compound: CNC(=O)c1ccc(Nc2ncc(C(F)(F)F)c(NCc3nccnc3N(C)S(C)(=O)=O)n2)cc1 [defactinib]
# How it was run: as §1
# [7] = compound: CNc1nc(-c2ccc3c(N)n[nH]c3c2)cc(N2C[C@@H](C(=O)NC3CCCCC3)CC[C@H]2C)n1
# How it was run: as §1
# encorafenib = compound: COC(=O)N[C@@H](C)CNc1nccc(-c2cn(C(C)C)nc2-c2cc(Cl)cc(NS(C)(=O)=O)c2F)n1 [encorafenib]
# How it was run: as §1
# [8] = compound: COC(=O)[C@H](CCSC)NC(=O)C1=C(C=C(C=C1)NC[C@H](CS)N)C2=CC=CC=C2
# How it was run: as §1
# [9] = compound: COc1cc2nc(-c3cc(F)ccc3O)nc(N[C@@H]3CNC[C@H]3C(C)(C)O)c2cc1OC
# How it was run: as §1
# barasertib = compound: CCN(CCCOc1ccc2c(Nc3cc(CC(=O)Nc4cccc(F)c4)[nH]n3)ncnc2c1)CCOP(=O)(O)O [barasertib]
# How it was run: as §1
# alisertib = compound: COc1cc(Nc2ncc3c(n2)-c2ccc(Cl)cc2C(c2c(F)cccc2OC)=NC3)ccc1C(=O)O [alisertib]
# How it was run: as §1
# gefitinib = compound: COc1cc2ncnc(Nc3ccc(F)c(Cl)c3)c2cc1OCCCN1CCOCC1 [gefitinib]
# How it was run: as §1
Target,log2 fold change (vemurafenib),log2 fold change [1],log2 fold change [2],log2 fold change (volasertib),log2 fold change [3],log2 fold change [4],log2 fold change [5],log2 fold change (saracatinib),log2 fold change (sotrastaurin),log2 fold change (alvocidib),log2 fold change (Tubastatin A),log2 fold change [6],log2 fold change (defactinib),log2 fold change [7],log2 fold change (encorafenib),log2 fold change [8],log2 fold change [9],log2 fold change (barasertib),log2 fold change (alisertib),log2 fold change (gefitinib)
S100A6 (UniProt P06703),inactive: 0.036,inactive: 0.124,inactive: -0.027,inactive: 0.048,inactive: -0.094,inactive: 0.03,inactive: -0.139,active: 0.715,inactive: -0.033,inactive: 0.084,inactive: -0.044,inactive: 0.018,inactive: -0.017,inactive: -0.126,inactive: -0.173,inactive: 0.023,inactive: -0.038,,,
RPLP0P6 (UniProt Q8NHW5),inactive: -0.002,inactive: 0.012,inactive: 0.009,inactive: -0.009,inactive: -0.02,inactive: -0.011,inactive: 0.017,inactive: -0.011,inactive: -0.02,inactive: -0.018,inactive: 0.015,inactive: -0.001,inactive: -0.014,inactive: 0.023,inactive: 0.001,inactive: 0.018,inactive: 0.023,inactive: -0.121,inactive: 0.004,inactive: -0.019
RWDD2A (UniProt Q9UIY3),inactive: 0.158,,inactive: 0.069,,inactive: 0.04,inactive: -0.173,inactive: -0.113,inactive: 0.02,inactive: 0.061,inactive: 0.017,inactive: 0.05,inactive: -0.144,inactive: -0.031,inactive: 0.034,inactive: -0.007,inactive: 0.018,,inactive: -0.044,,
RTRAF (UniProt Q9Y224),inactive: -0.032,inactive: -0.012,inactive: -0.05,inactive: -0.015,inactive: 0.036,inactive: 0.019,inactive: 0.02,inactive: -0.017,inactive: 0.018,inactive: -0.005,inactive: -0.061,inactive: -0.006,inactive: -0.004,inactive: -0.032,inactive: -0.01,inactive: -0.033,inactive: 0.006,inactive: 0.05,inactive: 0.033,inactive: -0.002
RTN3 isoform 5 (UniProt O95197),inactive: -0.063,inactive: 0.105,inactive: -0.058,inactive: 0.07,inactive: -0.013,inactive: -0.012,inactive: -0.067,inactive: 0,inactive: 0.035,inactive: 0.214,inactive: 0.12,inactive: 0.128,inactive: 0.102,inactive: 0.005,inactive: 0.045,inactive: 0.056,inactive: -0.022,inactive: 0.062,inactive: 0.04,inactive: -0.046
RRAS2 (UniProt P62070),inactive: 0.029,inactive: 0.038,inactive: 0.126,inactive: -0.038,inactive: -0.028,inactive: -0.019,inactive: 0.089,inactive: 0.067,inactive: -0.006,inactive: -0.004,inactive: 0.046,inactive: -0.003,inactive: -0.003,inactive: 0.021,inactive: 0.032,inactive: -0.058,inactive: 0.036,inactive: 0.002,inactive: -0.044,inactive: 0.107
RPS6KA5 (UniProt O75582),inactive: -0.048,inactive: -0.073,inactive: 0.059,inactive: -0.182,inactive: 0.005,inactive: -0.116,inactive: 0.087,inactive: -0.071,inactive: 0.185,inactive: 0.193,inactive: -0.239,inactive: 0.009,inactive: 0.019,inactive: 0.072,inactive: 0.054,inactive: -0.005,inactive: 0.104,,inactive: 0.041,inactive: 0.11
RPS9 (UniProt P46781),inactive: -0.037,inactive: -0.01,inactive: -0.074,inactive: -0.005,inactive: 0.03,active: 0.302,inactive: -0.063,inactive: 0,inactive: -0.023,inactive: 0.053,inactive: 0.006,inactive: -0.036,inactive: -0.064,inactive: 0.006,inactive: -0.022,inactive: 0.065,inactive: -0.003,inactive: -0.003,inactive: 0.004,inactive: -0.033
RTTN (UniProt Q86VV8),inactive: 0.066,inactive: 0.011,inactive: -0.101,inactive: -0.293,inactive: 0.099,inactive: -0.347,inactive: -0.316,inactive: 0.047,,inactive: 0.088,inactive: -0.242,inactive: 0.082,inactive: 0.401,inactive: 0.018,inactive: 0.069,inactive: -0.085,inactive: -0.301,inactive: 0.043,inactive: -0.002,inactive: 0.049
S100A1 (UniProt P23297),inactive: -0.044,inactive: -0.005,inactive: 0.027,inactive: 0.082,inactive: 0.028,inactive: 0.007,inactive: -0.021,inactive: 0.052,inactive: -0.139,inactive: 0.083,inactive: 0.046,inactive: 0.018,inactive: 0.008,inactive: 0.022,inactive: -0.016,inactive: -0.101,inactive: 0.02,,inactive: -0.124,inactive: 0.092
RPS17 (UniProt P08708),inactive: -0.011,inactive: 0.002,inactive: -0.014,inactive: -0.005,inactive: -0.011,inactive: 0.188,inactive: -0.088,inactive: 0.01,inactive: 0.002,inactive: 0.048,inactive: 0.007,inactive: -0.015,inactive: 0.008,inactive: 0.008,inactive: 0.013,inactive: -0.033,inactive: 0.003,inactive: -0.042,inactive: 0.006,inactive: -0.013
RPS3 (UniProt E9PJN9),inactive: -0.072,,inactive: -0.038,,inactive: 0.088,,,,inactive: 0.004,,inactive: -0.183,,inactive: -0.064,,inactive: -0.036,inactive: 0.049,,,,
RXRA (UniProt P19793),,inactive: -0.121,,inactive: 0.026,inactive: -0.061,active: -0.359,inactive: 0.13,inactive: -0.093,inactive: 0.013,inactive: -0.019,inactive: 0.138,inactive: -0.06,,inactive: 0.072,,,inactive: 0.018,,inactive: -0.117,inactive: 0.043
S100A10 (UniProt P60903),,,,,inactive: -0.198,,,inactive: 0.768,inactive: 0.331,,inactive: -0.076,inactive: -0.01,,inactive: -0.171,,,,inactive: 0.309,inactive: 0.026,inactive: 0.133
RUSC2 (UniProt Q8N2Y8),inactive: 0.428,,,,inactive: 0.06,inactive: 0.025,inactive: 0.038,inactive: 0.153,,inactive: -0.011,inactive: -0.016,inactive: 0.031,inactive: 0.044,inactive: -0.009,,,,inactive: -0.012,inactive: -0.149,inactive: -0.269

# An excerpt of these results, as tab-separated lines:
Target	log2 fold change (vemurafenib)	log2 fold change [1]	log2 fold change [2]	log2 fold change (volasertib)	log2 fold change [3]	log2 fold change [4]	log2 fold change [5]	log2 fold change (saracatinib)	log2 fold change (sotrastaurin)	log2 fold change (alvocidib)	log2 fold change (Tubastatin A)	log2 fold change [6]	log2 fold change (defactinib)	log2 fold change [7]	log2 fold change (encorafenib)	log2 fold change [8]	log2 fold change [9]	log2 fold change (barasertib)	log2 fold change (alisertib)	log2 fold change (gefitinib)
RPS9 (UniProt P46781)	inactive: -0.037	inactive: -0.01	inactive: -0.074	inactive: -0.005	inactive: 0.03	active: 0.302	inactive: -0.063	inactive: 0	inactive: -0.023	inactive: 0.053	inactive: 0.006	inactive: -0.036	inactive: -0.064	inactive: 0.006	inactive: -0.022	inactive: 0.065	inactive: -0.003	inactive: -0.003	inactive: 0.004	inactive: -0.033
RTTN (UniProt Q86VV8)	inactive: 0.066	inactive: 0.011	inactive: -0.101	inactive: -0.293	inactive: 0.099	inactive: -0.347	inactive: -0.316	inactive: 0.047		inactive: 0.088	inactive: -0.242	inactive: 0.082	inactive: 0.401	inactive: 0.018	inactive: 0.069	inactive: -0.085	inactive: -0.301	inactive: 0.043	inactive: -0.002	inactive: 0.049
S100A1 (UniProt P23297)	inactive: -0.044	inactive: -0.005	inactive: 0.027	inactive: 0.082	inactive: 0.028	inactive: 0.007	inactive: -0.021	inactive: 0.052	inactive: -0.139	inactive: 0.083	inactive: 0.046	inactive: 0.018	inactive: 0.008	inactive: 0.022	inactive: -0.016	inactive: -0.101	inactive: 0.02		inactive: -0.124	inactive: 0.092
